PMC3233385

What was measured:
[1] = target: T1, HSF4b wild type (Mus musculus) (UniProt Q9R0L1); assay: EMSA; details: supershift with anti-His, competed by cold HSE; Promega Gel Shift Assay System buffer (composition not given); 20 min at RT; 4% acrylamide gel (40:1) in 1x TAE at RT, 250 V, 1 h; protein in a lysate after overexpression; residues 1-492; protein details: N-terminal His (pcDNA4/HisMax TOPO); label: 32P (gamma-32P ATP labeling)
T1 sequence (looked up): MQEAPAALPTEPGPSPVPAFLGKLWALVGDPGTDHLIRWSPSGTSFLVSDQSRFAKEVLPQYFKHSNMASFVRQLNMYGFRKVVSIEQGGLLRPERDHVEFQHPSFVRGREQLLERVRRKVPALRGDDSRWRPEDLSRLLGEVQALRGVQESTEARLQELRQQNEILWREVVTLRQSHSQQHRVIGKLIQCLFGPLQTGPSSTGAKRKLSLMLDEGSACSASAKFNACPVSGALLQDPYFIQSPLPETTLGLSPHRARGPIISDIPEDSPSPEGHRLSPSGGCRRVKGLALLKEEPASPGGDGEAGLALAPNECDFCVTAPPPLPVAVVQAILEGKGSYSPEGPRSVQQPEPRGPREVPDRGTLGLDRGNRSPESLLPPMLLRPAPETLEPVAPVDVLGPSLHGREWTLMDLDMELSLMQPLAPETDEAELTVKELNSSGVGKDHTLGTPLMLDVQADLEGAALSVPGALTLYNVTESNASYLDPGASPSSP

[2] = target: HSF4b lop11 (Mus musculus (lop11)) (UniProt Q9R0L1); assay: EMSA; details: Promega Gel Shift Assay System buffer (composition not given); 20 min at RT; 4% acrylamide gel (40:1) in 1x TAE at RT, 250 V, 1 h; protein in a lysate after overexpression; protein details: N-terminal His (pcDNA4/HisMax TOPO); label: 32P (gamma-32P ATP labeling)

Sequence: TGACCTCACCATTCCAGAAGCTTCAGAAGA (double strand) [HSE oligo (alphaB-crystallin promoter)]
- binding result [1]: binds
- binding result [2]: no binding

Construct, isoform or probe ends are uncertain for at least one entry. Where cells or extracts were used, other partners may take part. For some assays here: No signal at the amounts used counts as a negative. For some assays here: Protein sequences can lack the tags named with them.
